Experimental data published in PubChem BioAssay AID1347423 (Functional Genomics Laboratory (NCATS/FGL), 2020).
Out of some 52,000 sequences screened, about 210 (0.4%) were called active.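 How the source made its calls: active means gene whose silencing raises cell survival under the drug, median off-target-corrected z-score across its silencing RNAs 2 or more; inactive means the rest.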 The list shows a part of the results.

test: Resistance to Poly (ADP-Ribose) Polymerase inhibitor: Gene Identification via Genome-wide siRNA Screen; conditions: mouse BRCA2 R2336H ES cells, olaparib, CellTiter-Glo viability; stronger effect = higher value
In short: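 Genome-wide siRNA screen (3 siRNAs/gene, 20 nM) in mouse ES cells carrying hypomorphic BRCA2 R2336H; olaparib 500 nM added 48 h post-transfection, CellTiter-Glo viability 72 h later. Normalized to plate-median negative control; MAD z-scores, gene median, seed-adjusted.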

Sequence	z-score
GGCUGUGAAUUGUUAACUATT against Stard4	inactive: -1.41
GGUGGAAGAGAAACUCAGGTT against Mill2	inactive: 0.788
GGCAUUUGACACAACUGUCTT against AI182371	inactive: -0.124
GCCACUCUUUAAGAAUCUATT against Abcf1	inactive: -0.475
GGAAGUUGACUUGUUCUCUTT against Ccndbp1	inactive: -0.348
GCAAGGAAGGCUUUCAAGATT against Gsta1	inactive: 1.41
GAUGACUAGCUCUACUUUATT against Olfr738	inactive: 0.559
GGUUGUCUACUUCACCGCUTT against Slc6a6	inactive: 1.63
CCUAAAGGUUCCCAACAGUTT against Serpinb3d	inactive: -0.0276
GGAGAACCUGCUGAAGGACTT against Itgb3	inactive: -0.362
GCAGUCUUUCUAAACAUAUTT against E130319B15Rik	inactive: 0.535
GGAGAAAAUGCAGUGUGAGTT against 1190005P17Rik	inactive: -1.84
GGACCGUAUCCCAAAAGAUTT against Klf1	inactive: -1.41
GGAUUAUCCUCUUUGACACTT against Kremen	inactive: 0.539
GGUAUUCAGAAAUAUCAAGTT against Pgcp	inactive: -0.966
CGUUUGAUGAGACCAUGUATT against Vwf	inactive: -0.238
GUCAUGGUAGGGAUUUACATT against Gm226	inactive: -0.576
GGCAAAUAAGAGAUAUCCATT against Vps24	inactive: 1.91
CCUUCAACAGAUCUAGAGUTT against Tceb3bp1	inactive: 1.47
CGAAGGGCUUUAGCUUGGATT against Capn11	inactive: -1.39
GGUAUACUCUUAGAGUAACTT against Kelchl	inactive: -0.692
GGUCUCAGAAGUGGUUUUCTT against Mettl4	inactive: 2.06
GGCUUCAUGCUACACAGAUTT against Soat2	inactive: -0.222

Sequence	z-score
GCAUCCUAAAGGAGACGCATT against BC027663	inactive: 0.784
CGUAAGAUGAAAGCUAUUGTT against Mtx2	inactive: -0.0996
GCAGGCUCUGCAUGAAGCATT against Akp2	inactive: -0.913
GGUGGCAGUGAAAGUCAUUTT against Snrk	inactive: -0.723
CCUUGGUCACCGAAUUUAUTT against Olfr152	inactive: 0.752
GAAAUAUUACAGCGACUGUTT against 2610017I09Rik	inactive: 0.671
GCGUUUGGGCCGGAAGAAATT against Smo	inactive: 0.111
GGCCAAAUUAGAAAAAGUCTT against Polr3e	inactive: -2.57
GGGUCAUGUACAAUCUCUUTT against Bbc3	inactive: 0.819
GGUGCUGUGGUUAAAAUGATT against Pgm5	inactive: 0.315
GGAGACAUGGCAUCCAAAUTT against Cnr1	inactive: 0.734
CCGCAUGAAGAGCAACCACTT against Hgs	inactive: 0.793
CCACCUUUAUUCAAAAUCGTT against Mmp20	inactive: 0.883
GCGAGUUGUUUCCAUAGUUTT against Gpr22	inactive: 0.273
GGAUGUGAUAUUAUAAAGGTT against Apba1	inactive: -0.421
GGUCAUGCUCAUCUUCUAUTT against Pigq	inactive: 0.839
GGGAAUCUUUGUAAACAGATT against 1810013B01Rik	inactive: 0.197
GGAGGACUCCAAGACCUUCTT against Rcn1	inactive: -0.355
GGCCUACAUGAACCAGAGATT against Bloc1s1	inactive: -1.78
CGAGAACUUAAAAUGGGAATT against Cd3e	inactive: 0.544
GCAAAGCCCUAUUCCUAAUTT against V2r4	inactive: -0.0485
GGUCAGAGUCAUCAACUUATT against Asb8	inactive: 1.05
GCCCUUUCAUCAAUAAUGUTT against Slc12a7	inactive: 0.622

Sequence	z-score
GGCCCUUUAACACAUACCCTT against Pak4	inactive: -0.49
GGAUGAAGCAGAAGAAUAATT against Spg7	inactive: -1.73
GGGCAACAUGUUAUUCUACTT against Psg29	inactive: 0.459
GGAGUGACUAACCCUCUAGTT against Ccnk	inactive: -2.69
GAAUGCGGCUGUAUGAGAATT against Crygc	inactive: -2.04
GGGCGACACAAGGUUUUUGTT against Kif3a	active: 1.13
CGAGAAUGUGUCUUCUUUATT against Trpm8	inactive: 0.171
UCAGAACCAUUUCUGUGCGTT against Pou4f1	inactive: -0.303
CGAGUGUGAUACGUACUUCTT against Jag1	inactive: -0.597
GCCCAUUAUAGGAAAGAACTT against Rhox12	inactive: -0.4
CCUUUGAGACAACCAGUCCTT against Entpd2	inactive: -0.697
GGUCUCCCUUUUCAAUCGCTT against Rbpsuhl	inactive: 0.306
GCACUGAACUUUGUCGAUUTT against 2900009I07Rik	inactive: -0.545
UAGCACCAUUUUUCAGAACTT against Ascc1	inactive: 5
GGAGAUAGAAUUGAAAUUCTT against Dtprp	inactive: -0.903
GGUUUGCUACACUUCAGAATT against Xpr1	inactive: 0.787
GGAAUAUGCUGCAAAAAUCTT against Camk2g	inactive: -0.675
GCUCUGCAUGACCUUACCUTT against 1300012D20Rik	inactive: -0.193
GGAUCAACUUACUUGUGGCTT against 8430437G11Rik	inactive: -0.28
CCUCCACUGCUUUUGUCUATT against Olfr1436	inactive: -0.777
GGAGUGUUGGAUGCUACCATT against Ache	inactive: 2.2
GGAUGGUUAUGUGUGGAGUTT against Socs4	inactive: -0.3

Taken from above for reference:
Sequence	z-score
GCCCAUUAUAGGAAAGAACTT against Rhox12	inactive: -0.4
CCUUUGAGACAACCAGUCCTT against Entpd2	inactive: -0.697
GGUCUCCCUUUUCAAUCGCTT against Rbpsuhl	inactive: 0.306
GCACUGAACUUUGUCGAUUTT against 2900009I07Rik	inactive: -0.545
UAGCACCAUUUUUCAGAACTT against Ascc1	inactive: 5
